Source: PMC2064872
No constants are given. Whether binding was seen depends on the method and setting. Binding seen in cells or lysates may run through a third protein.

Amino acid sequences for entries named in this document (tags omitted).
UniProt Q13049: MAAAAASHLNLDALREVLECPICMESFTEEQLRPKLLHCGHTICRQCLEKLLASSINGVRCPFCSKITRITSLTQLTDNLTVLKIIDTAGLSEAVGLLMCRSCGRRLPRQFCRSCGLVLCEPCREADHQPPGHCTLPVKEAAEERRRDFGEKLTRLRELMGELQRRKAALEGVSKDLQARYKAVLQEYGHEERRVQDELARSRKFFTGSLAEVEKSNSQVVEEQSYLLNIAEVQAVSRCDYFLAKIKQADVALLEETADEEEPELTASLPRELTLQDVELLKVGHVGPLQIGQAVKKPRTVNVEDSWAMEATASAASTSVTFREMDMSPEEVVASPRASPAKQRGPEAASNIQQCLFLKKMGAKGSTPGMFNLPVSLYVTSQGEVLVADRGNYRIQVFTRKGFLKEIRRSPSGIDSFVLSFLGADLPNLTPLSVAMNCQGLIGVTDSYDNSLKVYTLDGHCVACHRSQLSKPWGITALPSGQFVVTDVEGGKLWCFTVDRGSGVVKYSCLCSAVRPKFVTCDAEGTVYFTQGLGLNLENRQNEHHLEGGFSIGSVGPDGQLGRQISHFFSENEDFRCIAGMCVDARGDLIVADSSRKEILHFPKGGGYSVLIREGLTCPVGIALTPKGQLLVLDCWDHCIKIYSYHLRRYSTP
UniProt P49792: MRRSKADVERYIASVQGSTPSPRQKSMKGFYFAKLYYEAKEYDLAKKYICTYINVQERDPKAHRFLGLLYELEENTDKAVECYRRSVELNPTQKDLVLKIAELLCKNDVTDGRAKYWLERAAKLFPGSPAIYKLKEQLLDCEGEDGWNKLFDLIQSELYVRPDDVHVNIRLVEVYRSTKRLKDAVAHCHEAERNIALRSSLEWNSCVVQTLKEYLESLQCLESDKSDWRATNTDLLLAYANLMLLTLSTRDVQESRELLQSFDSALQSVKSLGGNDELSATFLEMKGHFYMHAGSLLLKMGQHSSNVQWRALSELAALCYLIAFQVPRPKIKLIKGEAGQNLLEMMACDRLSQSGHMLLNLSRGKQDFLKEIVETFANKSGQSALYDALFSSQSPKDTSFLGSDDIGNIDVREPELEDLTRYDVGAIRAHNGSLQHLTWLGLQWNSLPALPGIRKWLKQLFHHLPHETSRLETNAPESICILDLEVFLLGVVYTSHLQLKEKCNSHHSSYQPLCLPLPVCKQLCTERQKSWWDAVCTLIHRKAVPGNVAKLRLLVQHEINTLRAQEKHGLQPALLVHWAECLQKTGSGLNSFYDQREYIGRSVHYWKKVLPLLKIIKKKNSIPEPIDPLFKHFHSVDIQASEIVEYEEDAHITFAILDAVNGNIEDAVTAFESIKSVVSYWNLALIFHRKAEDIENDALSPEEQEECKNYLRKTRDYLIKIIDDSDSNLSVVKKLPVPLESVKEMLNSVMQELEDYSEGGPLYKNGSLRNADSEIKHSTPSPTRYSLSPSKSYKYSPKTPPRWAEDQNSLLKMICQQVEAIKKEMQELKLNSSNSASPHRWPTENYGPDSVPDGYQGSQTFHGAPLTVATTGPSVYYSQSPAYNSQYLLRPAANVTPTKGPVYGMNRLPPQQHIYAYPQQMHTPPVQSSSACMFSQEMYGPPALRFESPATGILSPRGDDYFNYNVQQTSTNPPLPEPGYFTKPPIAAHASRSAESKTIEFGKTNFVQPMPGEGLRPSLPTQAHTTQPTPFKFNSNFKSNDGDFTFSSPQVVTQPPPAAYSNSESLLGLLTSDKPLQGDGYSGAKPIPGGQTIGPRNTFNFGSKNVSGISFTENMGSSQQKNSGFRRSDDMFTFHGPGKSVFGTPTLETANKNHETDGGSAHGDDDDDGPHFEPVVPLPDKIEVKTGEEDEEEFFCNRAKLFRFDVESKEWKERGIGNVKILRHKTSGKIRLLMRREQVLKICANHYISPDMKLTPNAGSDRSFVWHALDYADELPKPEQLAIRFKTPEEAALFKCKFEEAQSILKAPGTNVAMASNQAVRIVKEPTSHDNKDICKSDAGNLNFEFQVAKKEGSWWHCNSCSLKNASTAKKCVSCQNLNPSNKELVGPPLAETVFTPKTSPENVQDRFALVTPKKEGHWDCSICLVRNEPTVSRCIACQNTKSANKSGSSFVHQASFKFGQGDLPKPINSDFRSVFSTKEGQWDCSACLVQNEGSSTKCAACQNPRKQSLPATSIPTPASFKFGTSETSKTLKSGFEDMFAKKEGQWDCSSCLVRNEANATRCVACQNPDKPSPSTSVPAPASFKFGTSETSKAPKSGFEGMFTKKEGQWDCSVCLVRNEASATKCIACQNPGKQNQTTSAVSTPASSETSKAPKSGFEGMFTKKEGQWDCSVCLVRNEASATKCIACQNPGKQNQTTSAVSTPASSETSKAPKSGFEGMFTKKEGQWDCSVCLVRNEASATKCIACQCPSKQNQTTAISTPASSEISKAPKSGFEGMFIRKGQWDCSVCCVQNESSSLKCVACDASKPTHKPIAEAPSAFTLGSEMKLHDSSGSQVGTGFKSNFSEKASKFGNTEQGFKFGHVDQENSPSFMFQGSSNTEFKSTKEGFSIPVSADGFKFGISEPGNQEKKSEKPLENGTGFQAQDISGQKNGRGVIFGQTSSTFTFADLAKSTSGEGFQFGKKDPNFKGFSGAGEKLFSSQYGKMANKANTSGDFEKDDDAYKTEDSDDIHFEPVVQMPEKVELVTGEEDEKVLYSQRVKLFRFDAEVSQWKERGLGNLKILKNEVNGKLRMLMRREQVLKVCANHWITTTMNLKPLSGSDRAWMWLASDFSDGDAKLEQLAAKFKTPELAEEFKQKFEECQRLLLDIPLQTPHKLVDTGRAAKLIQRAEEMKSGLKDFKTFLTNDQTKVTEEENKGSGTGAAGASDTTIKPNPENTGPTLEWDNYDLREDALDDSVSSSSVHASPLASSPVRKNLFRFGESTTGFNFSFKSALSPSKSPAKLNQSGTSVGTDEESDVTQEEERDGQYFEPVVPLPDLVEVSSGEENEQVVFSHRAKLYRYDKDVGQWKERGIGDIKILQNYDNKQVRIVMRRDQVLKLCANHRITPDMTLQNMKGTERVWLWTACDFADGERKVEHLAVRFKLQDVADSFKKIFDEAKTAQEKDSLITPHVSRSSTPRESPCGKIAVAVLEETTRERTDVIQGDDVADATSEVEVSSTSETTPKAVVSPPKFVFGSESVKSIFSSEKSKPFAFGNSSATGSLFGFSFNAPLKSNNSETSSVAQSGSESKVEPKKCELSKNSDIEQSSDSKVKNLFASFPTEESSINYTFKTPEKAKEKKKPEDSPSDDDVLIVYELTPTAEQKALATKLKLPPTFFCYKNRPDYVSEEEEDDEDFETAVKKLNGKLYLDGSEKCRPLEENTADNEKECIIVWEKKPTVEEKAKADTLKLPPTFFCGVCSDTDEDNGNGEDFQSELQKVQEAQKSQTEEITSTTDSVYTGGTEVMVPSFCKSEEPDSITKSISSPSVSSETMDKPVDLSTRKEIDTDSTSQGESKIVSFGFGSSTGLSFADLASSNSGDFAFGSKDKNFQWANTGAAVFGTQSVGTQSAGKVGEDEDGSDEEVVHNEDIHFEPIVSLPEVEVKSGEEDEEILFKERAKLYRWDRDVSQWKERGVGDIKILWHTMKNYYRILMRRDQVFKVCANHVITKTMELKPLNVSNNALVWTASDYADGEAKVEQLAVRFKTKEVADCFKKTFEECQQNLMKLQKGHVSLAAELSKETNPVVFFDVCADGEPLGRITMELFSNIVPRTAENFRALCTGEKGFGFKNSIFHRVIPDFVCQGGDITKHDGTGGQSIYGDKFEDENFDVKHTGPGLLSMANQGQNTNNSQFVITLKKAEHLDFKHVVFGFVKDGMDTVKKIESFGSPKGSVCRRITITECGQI

Target: Trim32, endogenous in HeLa cells (human (endogenous in HeLa)) (UniProt Q13049)
Assay: co-IP; endogenous proteins of MG132-treated HeLa cells; anti-Trim32 (or control IgG) as the IP antibody; immunoblot

binding: no binding
Substance: RanBP2, endogenous in HeLa cells (from UniProt P49792 1-3224)
